# Test system: HA-tagged human zDHHC2 expression
# Assay: Expression level of HA-zDHHC2 in treated HEK293T cells (HA signal/Total Protein Stain)
# Format: cell-based
# Details: 25 μM
row,Compound,level of zDHHC2 enzyme expression
1,"CCCCCCCOc1ccc(C(=O)Nc2cccc3c2OC(c2nnn[nH]2)CN3)cc1 (centres unmarked) [TTZ-1, N-(2-(1H-Tetrazol-5-yl)-3,4-dihydro-2H-benzo[b][1,4]oxazin-8-yl)-4-(heptyloxy)benzamide]",unaffected
2,"O=C(Nc1cccc2c1OC(c1nnn[nH]1)CN2)c1ccc(OCCCCc2ccccc2)cc1 (centres unmarked) [TTZ-2, N-(2-(1H-Tetrazol-5-yl)-3,4-dihydro-2H-benzo[b][1,4]oxazin-8-yl)-4-(4-phenylbutoxy)benzamide]",unaffected
